Like-named read-outs stand apart in the source and are kept apart here.
Test system: patients undergoing a colonoscopy
Settings: ITT Population

| Structure (SMILES) | No. of Top-up Doses, mean (SD) (5.0/3.0) | No. of Top-up Doses, mean (SD) (7.0/2.0 mg) | No. of Top-up Doses, mean (SD) (8.0/3.0 mg) | No. of Top-up Doses, mean (SD) (2.5/1.0 mg) |
| --- | --- | --- | --- | --- |
| COC(=O)CC[C@@H]1N=C(c2ccccn2)c2cc(Br)ccc2-n2c(C)cnc21 [CNS 7056, 3-[(4S)-8-bromo-1-methyl-6-(2-pyridinyl)-4H-imidazo[1,2-a][1,4]benzodiazepin-4-yl] propionic methyl ester] | 1.98 (1.64) | 2.35 (1.97) | 1.43 (1.52) | – |
| Cc1ncc2n1-c1ccc(Cl)cc1C(c1ccccc1F)=NC2 [Midazolam, reference compound] | – | – | – | 2.48 (1.77) |

From US20230346796A1 (priority 2010, published 2023)
